In paper PMC2429963:
These are yes or no findings as the source states them, for the method shown. Binding seen in cells or lysates may run through a third protein. Some results given as binding are weak or reduced against the parent protein; the word gives no strength. Sequences can lack the tags named with a protein.

Protein sequences, listed by entry. Tags and fused reporters are not part of them. Residues count along the entry.
UniProt P05067, residues 672-770: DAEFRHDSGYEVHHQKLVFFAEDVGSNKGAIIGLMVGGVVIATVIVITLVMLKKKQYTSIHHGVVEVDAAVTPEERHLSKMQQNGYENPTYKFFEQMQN

Target: T1, GST-Ubqn (Drosophila Ubiquilin) (Drosophila) (UniProt Q9VWD9)
T1 sequence: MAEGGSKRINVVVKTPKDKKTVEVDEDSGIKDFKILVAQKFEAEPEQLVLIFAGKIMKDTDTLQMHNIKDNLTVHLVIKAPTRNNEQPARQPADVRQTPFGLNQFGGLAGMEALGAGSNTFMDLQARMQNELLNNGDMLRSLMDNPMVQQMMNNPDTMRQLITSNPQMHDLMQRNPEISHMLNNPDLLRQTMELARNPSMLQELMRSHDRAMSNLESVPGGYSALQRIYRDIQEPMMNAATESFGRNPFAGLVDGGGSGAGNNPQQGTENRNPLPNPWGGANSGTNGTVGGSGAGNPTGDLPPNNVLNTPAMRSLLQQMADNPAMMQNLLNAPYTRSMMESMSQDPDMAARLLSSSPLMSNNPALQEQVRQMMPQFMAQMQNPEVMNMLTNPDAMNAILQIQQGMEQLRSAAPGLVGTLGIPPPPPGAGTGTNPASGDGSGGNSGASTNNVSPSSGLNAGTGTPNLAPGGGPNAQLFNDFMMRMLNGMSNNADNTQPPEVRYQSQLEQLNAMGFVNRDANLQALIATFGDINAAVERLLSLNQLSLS
Test: pull-down; 10 ug GST fusion proteins retained on 15 uL glutathione beads, mixed with 400 ug lysate of S2 cells transfected with Myc-tagged C99 in 1 mL; eluted by boiling in Laemmli buffer; Western blot with anti-Myc; only the target purified

C99-9Myc (C99 fragment of human APP, Myc-tagged) (from UniProt P05067 672-770) (domain or fragment)
binding: binds
